Results as given in the supplement of paper PMC10849652.
The other results are listed elsewhere or left out.

Protein sequences, listed by entry. Tags and fused reporters are not part of them. Lines headed by an entry give the natural chain unless they say otherwise; changes in a name come on top.
UniProt P46379: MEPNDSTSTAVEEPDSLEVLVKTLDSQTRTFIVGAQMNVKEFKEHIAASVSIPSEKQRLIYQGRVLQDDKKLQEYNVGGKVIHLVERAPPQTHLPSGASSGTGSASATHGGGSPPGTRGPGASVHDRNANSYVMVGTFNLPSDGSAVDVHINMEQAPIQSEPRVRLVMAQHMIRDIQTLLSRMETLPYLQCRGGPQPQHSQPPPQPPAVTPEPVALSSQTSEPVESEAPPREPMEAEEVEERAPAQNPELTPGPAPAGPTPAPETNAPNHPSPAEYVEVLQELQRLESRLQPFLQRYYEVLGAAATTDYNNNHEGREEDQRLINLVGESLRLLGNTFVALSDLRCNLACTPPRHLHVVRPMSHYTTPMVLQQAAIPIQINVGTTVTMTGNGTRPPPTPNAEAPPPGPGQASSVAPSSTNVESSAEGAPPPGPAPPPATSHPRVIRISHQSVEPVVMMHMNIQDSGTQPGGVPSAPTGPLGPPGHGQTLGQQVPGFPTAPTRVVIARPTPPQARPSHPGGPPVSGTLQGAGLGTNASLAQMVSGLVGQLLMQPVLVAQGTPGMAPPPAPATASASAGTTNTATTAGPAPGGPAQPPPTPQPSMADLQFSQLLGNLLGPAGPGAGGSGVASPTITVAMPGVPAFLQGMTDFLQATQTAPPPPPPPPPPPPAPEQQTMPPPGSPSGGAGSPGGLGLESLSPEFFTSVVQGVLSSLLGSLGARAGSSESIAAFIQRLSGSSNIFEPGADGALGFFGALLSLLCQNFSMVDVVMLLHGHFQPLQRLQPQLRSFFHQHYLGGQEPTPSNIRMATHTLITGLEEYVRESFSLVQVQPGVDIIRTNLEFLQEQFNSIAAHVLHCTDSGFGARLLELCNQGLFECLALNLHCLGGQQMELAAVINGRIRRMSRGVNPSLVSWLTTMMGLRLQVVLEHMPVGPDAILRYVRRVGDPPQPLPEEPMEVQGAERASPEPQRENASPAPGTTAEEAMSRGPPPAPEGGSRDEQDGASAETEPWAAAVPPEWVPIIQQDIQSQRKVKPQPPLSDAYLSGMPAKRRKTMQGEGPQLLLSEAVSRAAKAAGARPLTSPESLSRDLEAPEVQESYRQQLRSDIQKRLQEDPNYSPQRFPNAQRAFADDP
UniProt Q9BQE9, whole entry, looked up: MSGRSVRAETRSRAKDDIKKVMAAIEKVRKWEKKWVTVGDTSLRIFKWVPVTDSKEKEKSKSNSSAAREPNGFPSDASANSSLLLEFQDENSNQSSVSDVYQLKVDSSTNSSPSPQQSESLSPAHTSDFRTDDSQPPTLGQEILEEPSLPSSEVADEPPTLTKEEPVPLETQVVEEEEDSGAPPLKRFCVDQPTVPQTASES
UniProt Q8TDH9: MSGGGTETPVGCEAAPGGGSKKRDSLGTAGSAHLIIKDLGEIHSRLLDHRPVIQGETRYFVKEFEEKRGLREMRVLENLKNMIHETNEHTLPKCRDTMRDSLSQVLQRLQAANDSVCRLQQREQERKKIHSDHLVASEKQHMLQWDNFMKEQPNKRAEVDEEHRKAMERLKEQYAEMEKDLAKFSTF
UniProt Q7KYR7: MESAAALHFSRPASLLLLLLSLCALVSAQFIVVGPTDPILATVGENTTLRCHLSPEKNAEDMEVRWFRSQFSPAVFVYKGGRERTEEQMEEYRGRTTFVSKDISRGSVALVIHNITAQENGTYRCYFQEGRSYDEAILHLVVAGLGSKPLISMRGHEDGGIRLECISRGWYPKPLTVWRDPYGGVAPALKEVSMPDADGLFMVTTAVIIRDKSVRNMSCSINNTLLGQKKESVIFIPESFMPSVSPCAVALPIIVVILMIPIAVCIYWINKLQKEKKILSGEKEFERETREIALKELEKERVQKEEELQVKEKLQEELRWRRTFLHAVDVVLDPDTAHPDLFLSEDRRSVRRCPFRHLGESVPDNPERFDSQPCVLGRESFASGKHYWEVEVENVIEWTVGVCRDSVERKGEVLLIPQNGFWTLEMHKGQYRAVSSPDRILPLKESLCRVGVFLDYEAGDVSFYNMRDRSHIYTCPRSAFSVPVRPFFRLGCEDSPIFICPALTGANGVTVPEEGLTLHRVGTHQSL
UniProt Q9UL15: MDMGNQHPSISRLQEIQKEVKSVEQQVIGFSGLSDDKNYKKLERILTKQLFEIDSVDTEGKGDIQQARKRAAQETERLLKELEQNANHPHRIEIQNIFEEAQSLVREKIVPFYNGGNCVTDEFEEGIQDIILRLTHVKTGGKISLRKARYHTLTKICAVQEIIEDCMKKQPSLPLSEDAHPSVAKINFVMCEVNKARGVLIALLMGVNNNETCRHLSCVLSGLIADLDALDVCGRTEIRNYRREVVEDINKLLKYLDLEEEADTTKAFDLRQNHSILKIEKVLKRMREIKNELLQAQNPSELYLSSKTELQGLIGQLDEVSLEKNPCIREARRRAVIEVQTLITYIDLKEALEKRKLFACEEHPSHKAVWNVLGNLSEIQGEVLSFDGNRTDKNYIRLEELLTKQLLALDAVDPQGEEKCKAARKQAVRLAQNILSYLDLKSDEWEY
UniProt Q92843: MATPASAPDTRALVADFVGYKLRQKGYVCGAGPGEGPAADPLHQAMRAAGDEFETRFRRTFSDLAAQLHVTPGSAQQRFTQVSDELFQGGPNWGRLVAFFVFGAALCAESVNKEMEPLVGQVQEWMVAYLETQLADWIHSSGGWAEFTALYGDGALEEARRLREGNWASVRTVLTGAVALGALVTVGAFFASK
UniProt Q8TDN6: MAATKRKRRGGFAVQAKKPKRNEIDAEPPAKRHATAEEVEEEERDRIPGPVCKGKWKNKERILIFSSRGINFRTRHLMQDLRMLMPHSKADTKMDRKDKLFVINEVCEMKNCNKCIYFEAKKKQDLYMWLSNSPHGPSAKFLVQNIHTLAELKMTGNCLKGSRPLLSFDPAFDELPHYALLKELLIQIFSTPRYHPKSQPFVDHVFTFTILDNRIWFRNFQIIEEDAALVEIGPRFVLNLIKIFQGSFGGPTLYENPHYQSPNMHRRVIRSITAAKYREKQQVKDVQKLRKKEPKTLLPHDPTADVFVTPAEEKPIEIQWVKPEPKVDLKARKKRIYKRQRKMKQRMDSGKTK
UniProt Q86WA6: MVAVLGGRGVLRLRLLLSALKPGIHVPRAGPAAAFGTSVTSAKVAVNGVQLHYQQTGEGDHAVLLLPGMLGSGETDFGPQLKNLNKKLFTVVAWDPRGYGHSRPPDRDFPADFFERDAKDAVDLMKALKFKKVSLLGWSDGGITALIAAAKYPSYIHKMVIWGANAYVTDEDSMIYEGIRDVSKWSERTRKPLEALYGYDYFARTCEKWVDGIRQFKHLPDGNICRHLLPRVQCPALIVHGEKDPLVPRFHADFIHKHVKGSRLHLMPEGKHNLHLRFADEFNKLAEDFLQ
UniProt O15155: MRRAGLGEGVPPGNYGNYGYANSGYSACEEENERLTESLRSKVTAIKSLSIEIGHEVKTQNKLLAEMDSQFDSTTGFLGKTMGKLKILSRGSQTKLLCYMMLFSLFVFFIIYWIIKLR
UniProt Q96GS4: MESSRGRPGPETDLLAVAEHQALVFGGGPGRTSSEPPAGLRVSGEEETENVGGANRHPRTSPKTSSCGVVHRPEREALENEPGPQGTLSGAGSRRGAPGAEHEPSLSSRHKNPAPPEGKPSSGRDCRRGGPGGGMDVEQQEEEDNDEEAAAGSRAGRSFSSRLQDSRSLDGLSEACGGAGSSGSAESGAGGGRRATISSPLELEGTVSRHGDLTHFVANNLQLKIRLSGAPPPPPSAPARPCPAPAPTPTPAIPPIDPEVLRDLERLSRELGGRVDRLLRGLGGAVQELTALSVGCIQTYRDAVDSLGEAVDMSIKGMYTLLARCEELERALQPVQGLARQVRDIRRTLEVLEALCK
UniProt P56945: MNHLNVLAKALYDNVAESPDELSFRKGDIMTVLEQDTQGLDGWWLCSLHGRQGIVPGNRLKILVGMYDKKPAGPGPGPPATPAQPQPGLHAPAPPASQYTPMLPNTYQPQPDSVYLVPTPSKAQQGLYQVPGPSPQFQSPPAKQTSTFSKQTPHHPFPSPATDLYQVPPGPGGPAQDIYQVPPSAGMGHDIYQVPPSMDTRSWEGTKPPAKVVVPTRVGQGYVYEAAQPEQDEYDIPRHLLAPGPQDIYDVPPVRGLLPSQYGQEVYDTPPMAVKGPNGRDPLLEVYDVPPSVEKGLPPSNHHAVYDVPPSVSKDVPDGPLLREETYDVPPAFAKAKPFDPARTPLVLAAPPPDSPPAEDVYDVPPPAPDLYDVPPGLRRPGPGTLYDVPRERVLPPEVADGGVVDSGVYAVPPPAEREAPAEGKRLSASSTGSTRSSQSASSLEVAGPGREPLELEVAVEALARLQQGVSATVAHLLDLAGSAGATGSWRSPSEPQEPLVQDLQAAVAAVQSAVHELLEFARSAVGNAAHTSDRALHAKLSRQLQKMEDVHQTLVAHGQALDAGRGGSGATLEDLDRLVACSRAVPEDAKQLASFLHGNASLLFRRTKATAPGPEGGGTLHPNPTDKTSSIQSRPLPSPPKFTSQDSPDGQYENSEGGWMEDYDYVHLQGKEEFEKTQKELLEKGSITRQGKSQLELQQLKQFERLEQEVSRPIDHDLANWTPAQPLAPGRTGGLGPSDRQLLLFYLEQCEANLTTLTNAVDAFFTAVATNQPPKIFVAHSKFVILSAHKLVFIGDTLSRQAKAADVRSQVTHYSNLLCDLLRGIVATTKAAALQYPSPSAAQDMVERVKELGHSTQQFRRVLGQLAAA
UniProt Q99728: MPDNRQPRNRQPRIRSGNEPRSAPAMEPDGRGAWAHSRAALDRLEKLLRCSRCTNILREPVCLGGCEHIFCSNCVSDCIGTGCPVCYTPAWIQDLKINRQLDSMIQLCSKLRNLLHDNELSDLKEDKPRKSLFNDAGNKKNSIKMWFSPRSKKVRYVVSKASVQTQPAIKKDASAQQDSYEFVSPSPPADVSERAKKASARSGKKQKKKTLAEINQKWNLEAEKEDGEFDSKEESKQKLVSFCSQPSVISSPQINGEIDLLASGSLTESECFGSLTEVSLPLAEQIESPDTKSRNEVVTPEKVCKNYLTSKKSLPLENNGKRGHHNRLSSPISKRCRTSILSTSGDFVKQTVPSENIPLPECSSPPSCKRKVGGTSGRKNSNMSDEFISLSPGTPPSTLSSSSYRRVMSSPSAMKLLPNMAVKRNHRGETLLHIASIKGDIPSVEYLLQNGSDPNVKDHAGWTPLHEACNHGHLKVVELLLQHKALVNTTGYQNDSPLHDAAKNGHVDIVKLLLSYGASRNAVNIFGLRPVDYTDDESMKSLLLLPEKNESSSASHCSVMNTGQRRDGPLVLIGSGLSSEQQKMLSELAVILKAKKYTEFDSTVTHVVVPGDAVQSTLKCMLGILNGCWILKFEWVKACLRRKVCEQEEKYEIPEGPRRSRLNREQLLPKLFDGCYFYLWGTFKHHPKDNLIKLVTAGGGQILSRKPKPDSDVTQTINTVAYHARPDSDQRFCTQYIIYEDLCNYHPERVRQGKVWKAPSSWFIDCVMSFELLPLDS
UniProt P21953: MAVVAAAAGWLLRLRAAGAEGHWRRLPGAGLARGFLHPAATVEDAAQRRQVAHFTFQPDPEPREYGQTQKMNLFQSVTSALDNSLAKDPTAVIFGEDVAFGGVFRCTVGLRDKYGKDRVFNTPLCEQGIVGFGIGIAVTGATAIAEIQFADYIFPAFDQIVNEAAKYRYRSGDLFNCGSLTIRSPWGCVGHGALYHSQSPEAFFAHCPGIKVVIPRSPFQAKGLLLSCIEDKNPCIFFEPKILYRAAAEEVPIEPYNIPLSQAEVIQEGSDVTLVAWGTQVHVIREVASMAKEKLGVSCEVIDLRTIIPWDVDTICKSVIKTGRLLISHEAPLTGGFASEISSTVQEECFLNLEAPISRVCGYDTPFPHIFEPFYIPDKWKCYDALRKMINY
UniProt P55957: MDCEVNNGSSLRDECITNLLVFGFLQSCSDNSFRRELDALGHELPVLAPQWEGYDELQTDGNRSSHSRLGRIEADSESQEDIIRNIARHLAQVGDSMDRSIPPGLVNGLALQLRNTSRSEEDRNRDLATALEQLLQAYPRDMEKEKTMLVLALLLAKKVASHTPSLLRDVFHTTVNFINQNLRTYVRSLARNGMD
UniProt Q6QNY0: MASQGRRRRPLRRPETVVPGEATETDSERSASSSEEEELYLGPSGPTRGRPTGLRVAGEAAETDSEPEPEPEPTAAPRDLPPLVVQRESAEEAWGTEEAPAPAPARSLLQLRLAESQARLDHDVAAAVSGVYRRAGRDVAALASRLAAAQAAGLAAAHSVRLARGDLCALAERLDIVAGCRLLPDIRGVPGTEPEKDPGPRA

compound: C1=CC(=CC=C1C2=NC3=C(N2)C=C(C=C3)C(=O)N)OC4=CC=C(C=C4)Cl; test: log2 fold change, soluble protein after heating vs DMSO (PISA); higher = thermal stabilisation; K562 lysate, 10 uM; active = over 0.2 and 3.5 SD of the protein, either way, in both replicates (recomputed)
How it was run: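 K562 pellets were dounce-homogenised in PBS pH 7.4 containing 1 mM MgCl2, and the crude extract, at 1 mg/mL protein, was exposed to 10 μM compound for 30 min. Aliquots were heated for 3 min across 48°C-58°C, pooled, brought to 0.5% NP-40 at 4°C and spun at 21,000xg for 90 min, with the supernatant taken as soluble protein. TMTpro 16plex LC-MS/MS with equalised channel sums quantified that protein. Values are log-two fold changes in thermal stability relative to solvent controls, taken from duplicates.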

log2 fold change, inactive:
BRD8 isoform 2 (UniProt Q9H0E9) 0.064
BAIAP2 (UniProt Q9UQB8) 0.044
BAG6 isoform 3 (UniProt P46379) -0.053
BPTF (UniProt Q12830) 0.039
BAG1 (UniProt Q99933) 0.019
BCL7B (UniProt Q9BQE9) 0.082
BCLAF1 (UniProt Q9NYF8) 0.022
BLOC1S5 (UniProt Q8TDH9) 0.011
BTN2A1 (UniProt Q7KYR7) 0.017
BAG5 isoform 2 (UniProt Q9UL15) 0.019
BCL2L2 isoform 2 (UniProt Q92843) -0.046
BRCA1 isoform 7 (UniProt P38398) 0.021
BRIX1 (UniProt Q8TDN6) -0.028
BCL7C isoform 2 (UniProt Q8WUZ0) -0.045
BTBD6 (UniProt Q96KE9) 0.14
BCOR (UniProt Q6W2J9) 0.038
BORCS5 (UniProt Q969J3) 0.016
BPHL (UniProt Q86WA6) 0.033
BET1 (UniProt O15155) -0.059
BNIP2 (UniProt J3KN59) -0.116
BORCS6 (UniProt Q96GS4) 0.029
BIRC5 (UniProt O15392) 0.119
BCAR1 isoform 6 (UniProt P56945) 0.052
BAG2 (UniProt O95816) 0.008
BARD1 (UniProt Q99728) 0.011
BTAF1 (UniProt O14981) -0.01
BSG (UniProt P35613) -0.014
BCAS2 (UniProt O75934) 0.012
BCKDHB (UniProt P21953) 0.033
BTF3L4 (UniProt Q96K17) 0.002
BID isoform 2 (UniProt P55957) 0.015
BCL2L13 (UniProt Q9BXK5) 0.025
BCKDK (UniProt O14874) -0.007
BLOC1S3 (UniProt Q6QNY0) 0.003

For reference, some entries already given.
log2 fold change, inactive:
BPHL (UniProt Q86WA6) 0.033
BET1 (UniProt O15155) -0.059
